Data on twelve targets can be found in the supplement of paper PMC6411743.

Sequences of proteins named here, by UniProt entry; tags and fusion partners are left off. A change or cut given only in a name is not applied to a line headed by its entry.
UniProt Q9UPT5: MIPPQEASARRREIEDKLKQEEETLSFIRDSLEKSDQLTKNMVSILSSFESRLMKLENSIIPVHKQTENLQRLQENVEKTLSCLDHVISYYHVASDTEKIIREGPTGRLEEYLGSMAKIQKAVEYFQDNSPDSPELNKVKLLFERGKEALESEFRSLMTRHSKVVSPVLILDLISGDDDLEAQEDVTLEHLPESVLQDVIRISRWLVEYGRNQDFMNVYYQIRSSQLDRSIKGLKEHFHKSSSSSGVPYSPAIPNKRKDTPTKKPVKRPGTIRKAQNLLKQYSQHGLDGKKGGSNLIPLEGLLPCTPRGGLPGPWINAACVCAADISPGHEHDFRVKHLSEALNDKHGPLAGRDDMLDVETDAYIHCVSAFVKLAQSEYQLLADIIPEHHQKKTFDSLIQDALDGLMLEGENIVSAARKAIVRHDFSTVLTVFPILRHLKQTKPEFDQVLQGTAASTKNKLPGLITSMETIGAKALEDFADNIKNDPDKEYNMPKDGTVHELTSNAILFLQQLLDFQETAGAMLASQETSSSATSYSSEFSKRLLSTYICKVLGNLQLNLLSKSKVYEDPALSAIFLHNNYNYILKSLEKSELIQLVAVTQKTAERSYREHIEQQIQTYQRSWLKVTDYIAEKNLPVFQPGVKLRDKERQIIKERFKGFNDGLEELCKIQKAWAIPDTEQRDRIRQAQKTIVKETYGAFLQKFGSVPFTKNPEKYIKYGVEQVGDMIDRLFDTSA
UniProt Q96AP0: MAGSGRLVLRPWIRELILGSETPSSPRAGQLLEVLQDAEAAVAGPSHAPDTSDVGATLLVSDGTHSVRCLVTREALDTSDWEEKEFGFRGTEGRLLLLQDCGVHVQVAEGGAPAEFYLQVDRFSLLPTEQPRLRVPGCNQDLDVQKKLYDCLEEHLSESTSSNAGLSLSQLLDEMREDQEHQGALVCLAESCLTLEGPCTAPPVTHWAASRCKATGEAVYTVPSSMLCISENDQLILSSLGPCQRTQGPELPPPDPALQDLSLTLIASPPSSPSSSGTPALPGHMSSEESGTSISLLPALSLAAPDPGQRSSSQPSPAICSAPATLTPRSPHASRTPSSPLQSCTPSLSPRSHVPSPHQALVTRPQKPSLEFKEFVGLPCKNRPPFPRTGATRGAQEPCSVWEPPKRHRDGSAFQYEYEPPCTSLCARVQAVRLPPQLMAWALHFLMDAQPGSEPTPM
UniProt Q03701: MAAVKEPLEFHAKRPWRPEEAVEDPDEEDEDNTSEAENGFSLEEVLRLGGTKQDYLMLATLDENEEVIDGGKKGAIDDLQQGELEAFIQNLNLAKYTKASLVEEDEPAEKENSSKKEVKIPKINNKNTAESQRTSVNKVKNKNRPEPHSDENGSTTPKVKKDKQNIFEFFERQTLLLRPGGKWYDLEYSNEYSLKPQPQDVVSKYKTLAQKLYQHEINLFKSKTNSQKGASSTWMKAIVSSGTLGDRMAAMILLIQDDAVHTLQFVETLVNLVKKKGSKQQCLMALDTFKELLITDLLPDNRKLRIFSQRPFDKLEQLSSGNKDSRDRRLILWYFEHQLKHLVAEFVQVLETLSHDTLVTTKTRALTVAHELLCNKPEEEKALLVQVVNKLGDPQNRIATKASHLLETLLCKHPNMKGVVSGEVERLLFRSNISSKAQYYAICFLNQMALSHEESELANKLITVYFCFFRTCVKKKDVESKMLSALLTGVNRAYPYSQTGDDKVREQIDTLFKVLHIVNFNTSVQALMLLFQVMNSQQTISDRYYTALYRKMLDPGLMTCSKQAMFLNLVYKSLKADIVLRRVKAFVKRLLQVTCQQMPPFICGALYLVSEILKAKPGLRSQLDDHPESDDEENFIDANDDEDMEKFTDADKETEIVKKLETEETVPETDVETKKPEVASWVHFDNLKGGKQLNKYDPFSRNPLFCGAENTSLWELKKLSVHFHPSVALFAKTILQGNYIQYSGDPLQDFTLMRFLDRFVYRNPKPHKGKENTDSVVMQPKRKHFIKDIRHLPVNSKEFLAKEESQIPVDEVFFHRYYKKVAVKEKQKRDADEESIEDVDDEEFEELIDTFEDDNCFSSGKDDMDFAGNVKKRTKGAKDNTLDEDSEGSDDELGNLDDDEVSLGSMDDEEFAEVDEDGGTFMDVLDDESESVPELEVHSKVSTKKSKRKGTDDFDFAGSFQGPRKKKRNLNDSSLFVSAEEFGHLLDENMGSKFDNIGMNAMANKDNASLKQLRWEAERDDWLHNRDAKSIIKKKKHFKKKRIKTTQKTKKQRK
UniProt Q9NP64: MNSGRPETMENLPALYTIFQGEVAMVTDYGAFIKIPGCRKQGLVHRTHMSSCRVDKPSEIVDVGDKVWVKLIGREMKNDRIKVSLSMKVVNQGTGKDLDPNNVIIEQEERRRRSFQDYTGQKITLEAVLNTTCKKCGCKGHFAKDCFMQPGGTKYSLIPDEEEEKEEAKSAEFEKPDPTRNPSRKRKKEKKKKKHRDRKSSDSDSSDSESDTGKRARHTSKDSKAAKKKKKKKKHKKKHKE
UniProt Q9UPN6: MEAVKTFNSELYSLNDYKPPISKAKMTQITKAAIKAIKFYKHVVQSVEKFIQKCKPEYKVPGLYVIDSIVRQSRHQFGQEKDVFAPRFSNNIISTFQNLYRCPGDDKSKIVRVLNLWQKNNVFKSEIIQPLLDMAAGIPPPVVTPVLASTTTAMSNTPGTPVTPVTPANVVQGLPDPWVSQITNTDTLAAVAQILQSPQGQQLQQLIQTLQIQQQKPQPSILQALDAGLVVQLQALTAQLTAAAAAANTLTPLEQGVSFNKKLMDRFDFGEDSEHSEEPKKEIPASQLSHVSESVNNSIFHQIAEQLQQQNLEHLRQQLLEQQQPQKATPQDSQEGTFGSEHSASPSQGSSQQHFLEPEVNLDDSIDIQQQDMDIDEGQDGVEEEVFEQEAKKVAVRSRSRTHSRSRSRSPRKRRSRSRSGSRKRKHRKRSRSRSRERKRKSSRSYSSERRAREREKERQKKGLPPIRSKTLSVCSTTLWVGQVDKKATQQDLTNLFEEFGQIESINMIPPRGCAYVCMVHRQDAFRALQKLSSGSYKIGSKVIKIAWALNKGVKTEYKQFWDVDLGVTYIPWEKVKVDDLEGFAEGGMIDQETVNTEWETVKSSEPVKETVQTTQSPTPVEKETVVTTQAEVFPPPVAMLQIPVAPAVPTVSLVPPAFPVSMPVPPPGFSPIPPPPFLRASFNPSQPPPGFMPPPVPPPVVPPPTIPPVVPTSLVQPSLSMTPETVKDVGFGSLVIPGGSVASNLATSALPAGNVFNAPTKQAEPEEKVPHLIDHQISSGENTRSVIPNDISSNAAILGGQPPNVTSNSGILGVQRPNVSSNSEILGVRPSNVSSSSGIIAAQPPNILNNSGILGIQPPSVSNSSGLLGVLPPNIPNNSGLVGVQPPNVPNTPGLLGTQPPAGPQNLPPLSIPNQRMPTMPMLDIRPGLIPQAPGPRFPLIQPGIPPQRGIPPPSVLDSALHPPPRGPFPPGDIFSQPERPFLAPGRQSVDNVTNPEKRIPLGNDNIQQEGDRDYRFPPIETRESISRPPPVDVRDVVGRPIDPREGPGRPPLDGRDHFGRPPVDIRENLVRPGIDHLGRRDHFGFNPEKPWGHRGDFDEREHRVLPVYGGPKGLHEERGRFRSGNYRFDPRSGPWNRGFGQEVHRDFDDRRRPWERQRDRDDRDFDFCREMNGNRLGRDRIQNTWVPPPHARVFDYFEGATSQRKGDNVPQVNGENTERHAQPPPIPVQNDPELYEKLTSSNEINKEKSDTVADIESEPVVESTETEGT
UniProt O75521: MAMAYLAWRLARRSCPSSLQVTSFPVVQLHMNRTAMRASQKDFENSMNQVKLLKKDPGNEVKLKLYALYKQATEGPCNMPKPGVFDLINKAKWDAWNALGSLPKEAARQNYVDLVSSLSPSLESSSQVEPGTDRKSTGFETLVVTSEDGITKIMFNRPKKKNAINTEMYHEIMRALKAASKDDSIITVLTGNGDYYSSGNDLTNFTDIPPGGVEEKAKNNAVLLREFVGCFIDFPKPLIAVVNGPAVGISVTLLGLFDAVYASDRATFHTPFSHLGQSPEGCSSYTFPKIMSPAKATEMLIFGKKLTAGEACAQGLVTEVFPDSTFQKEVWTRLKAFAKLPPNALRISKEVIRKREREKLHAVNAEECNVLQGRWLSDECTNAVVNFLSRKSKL
UniProt Q9UHQ1: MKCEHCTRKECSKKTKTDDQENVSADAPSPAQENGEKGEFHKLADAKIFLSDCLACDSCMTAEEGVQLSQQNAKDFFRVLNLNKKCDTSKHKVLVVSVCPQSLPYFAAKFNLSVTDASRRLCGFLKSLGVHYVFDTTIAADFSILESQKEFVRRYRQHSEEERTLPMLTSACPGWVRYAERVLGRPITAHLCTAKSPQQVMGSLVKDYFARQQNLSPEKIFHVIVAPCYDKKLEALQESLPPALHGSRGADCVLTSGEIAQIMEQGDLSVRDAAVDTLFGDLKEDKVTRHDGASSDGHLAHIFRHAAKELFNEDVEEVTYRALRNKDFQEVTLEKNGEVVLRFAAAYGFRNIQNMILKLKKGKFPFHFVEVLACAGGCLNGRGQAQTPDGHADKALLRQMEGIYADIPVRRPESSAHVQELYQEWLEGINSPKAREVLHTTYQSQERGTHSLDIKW
UniProt O43847: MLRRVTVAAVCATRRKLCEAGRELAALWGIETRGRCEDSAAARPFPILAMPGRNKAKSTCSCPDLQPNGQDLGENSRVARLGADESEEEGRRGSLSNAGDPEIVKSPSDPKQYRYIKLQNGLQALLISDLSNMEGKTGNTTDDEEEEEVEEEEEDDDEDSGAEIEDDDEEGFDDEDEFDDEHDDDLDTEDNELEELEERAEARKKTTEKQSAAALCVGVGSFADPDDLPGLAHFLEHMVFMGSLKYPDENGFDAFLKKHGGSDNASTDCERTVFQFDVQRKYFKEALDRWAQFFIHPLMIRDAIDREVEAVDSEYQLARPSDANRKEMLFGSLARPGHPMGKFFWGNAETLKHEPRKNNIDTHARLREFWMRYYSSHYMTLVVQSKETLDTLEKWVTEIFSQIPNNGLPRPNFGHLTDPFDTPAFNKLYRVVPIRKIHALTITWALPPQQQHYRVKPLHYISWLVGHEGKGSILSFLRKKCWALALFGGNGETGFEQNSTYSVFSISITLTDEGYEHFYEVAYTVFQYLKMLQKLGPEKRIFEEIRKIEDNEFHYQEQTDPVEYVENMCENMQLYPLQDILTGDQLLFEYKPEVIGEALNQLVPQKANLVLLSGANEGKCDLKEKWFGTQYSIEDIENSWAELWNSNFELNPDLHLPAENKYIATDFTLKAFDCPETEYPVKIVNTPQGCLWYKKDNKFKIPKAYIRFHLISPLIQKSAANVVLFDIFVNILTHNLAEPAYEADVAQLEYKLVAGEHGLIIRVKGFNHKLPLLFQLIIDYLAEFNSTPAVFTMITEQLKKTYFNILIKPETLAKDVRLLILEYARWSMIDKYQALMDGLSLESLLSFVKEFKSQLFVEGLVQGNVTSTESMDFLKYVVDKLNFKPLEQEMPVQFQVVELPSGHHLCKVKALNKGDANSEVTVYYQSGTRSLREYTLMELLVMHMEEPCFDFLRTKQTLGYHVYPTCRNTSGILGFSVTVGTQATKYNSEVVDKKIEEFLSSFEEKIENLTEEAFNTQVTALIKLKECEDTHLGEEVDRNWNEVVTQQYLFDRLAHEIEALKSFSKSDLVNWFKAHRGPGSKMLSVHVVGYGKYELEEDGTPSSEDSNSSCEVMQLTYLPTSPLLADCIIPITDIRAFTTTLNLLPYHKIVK
UniProt Q9Y2D4: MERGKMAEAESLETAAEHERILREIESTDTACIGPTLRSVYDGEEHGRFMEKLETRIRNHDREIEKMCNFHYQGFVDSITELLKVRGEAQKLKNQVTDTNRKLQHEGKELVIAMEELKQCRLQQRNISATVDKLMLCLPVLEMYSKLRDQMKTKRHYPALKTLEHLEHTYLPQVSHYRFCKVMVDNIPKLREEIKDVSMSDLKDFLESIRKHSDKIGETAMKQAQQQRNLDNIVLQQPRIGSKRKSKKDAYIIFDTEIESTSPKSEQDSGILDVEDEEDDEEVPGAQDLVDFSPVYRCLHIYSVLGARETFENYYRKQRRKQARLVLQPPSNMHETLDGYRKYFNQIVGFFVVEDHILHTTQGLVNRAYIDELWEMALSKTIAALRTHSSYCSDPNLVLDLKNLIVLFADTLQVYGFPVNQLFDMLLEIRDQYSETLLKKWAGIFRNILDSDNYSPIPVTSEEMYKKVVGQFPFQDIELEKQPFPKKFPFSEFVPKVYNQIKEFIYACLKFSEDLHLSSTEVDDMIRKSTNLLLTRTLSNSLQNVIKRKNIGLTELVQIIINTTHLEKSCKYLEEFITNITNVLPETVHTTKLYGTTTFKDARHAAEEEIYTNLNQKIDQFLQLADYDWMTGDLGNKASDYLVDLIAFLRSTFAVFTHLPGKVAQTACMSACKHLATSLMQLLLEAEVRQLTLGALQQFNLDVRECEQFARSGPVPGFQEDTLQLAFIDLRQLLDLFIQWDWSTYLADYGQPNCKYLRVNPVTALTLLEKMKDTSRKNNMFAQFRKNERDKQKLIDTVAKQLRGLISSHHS

± gives the standard deviation of the averaged measurements. The list shows a part of the results.

Compound in the assay: Nc1nc2c(ncn2[C@@H]2O[C@H](COP(=O)(O)OP(=O)(O)OP(=O)(O)O)[C@@H](O)[C@H]2O)c(=O)[nH]1 [guanosine triphosphate]
Put plainly: NP40-soluble protein abundance relative to vehicle (solubility fold change) (ratio); higher = more soluble protein in presence of GTP. A digest of the protocol: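 Eight concentrations, 0.1 to 10 mM, were tested on Jurkat crude lysate for 10 min at room temperature and then 3 min at 37 °C, in three independent experiments. The lysate was solubilised with 0.8% NP40 and benzonase, ultracentrifuged, and the supernatant TMT-labelled for LC-MS/MS. Each value is the fold change against the detergent-processed vehicle in its own replicate, from vsn-normalised intensities.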

On to A0A0A0MSB8|Q9UPT5-6 (UniProt Q9UPT5), for which the NP40-soluble protein abundance stood at 0.973 ± 0.037 (concentration: 0.1mM); 0.964 ± 0.05 (concentration: 0.5mM); 0.974 ± 0.06 (concentration: 1mM); 0.964 ± 0.039 (concentration: 2mM); 0.949 ± 0.035 (concentration: 4mM); 0.936 ± 0.039 (concentration: 6mM). Also, the NP40-soluble protein abundance (concentration: 8mM) amounted to 0.971 ± 0.043 and the NP40-soluble protein abundance (concentration: 10mM) is 0.928 ± 0.037.

As to “A0A0C4DGT6|Q96AP0 and related entries (UniProt Q96AP0)”, the NP40-soluble protein abundance stood at 1.17 ± 0.1 (concentration: 0.1mM); 1.23 ± 0.065 (concentration: 0.5mM); 1.11 ± 0.057 (concentration: 1mM); 1.25 ± 0.12 (concentration: 2mM); 1.22 ± 0.072 (concentration: 4mM); 1.32 ± 0.13 (concentration: 6mM). Also, the NP40-soluble protein abundance was found to be 1.26 ± 0.11 (concentration: 8mM) and 1.23 ± 0.065 (concentration: 10mM).

Take A0A087X1N2|Q03701 (UniProt Q03701): the NP40-soluble protein abundance turned out to be 0.968 ± 0.099 (concentration: 0.1mM); 1.04 ± 0.081 (concentration: 0.5mM); 1.03 ± 0.048 (concentration: 1mM); 1.02 ± 0.063 (concentration: 2mM); 1.07 ± 0.053 (concentration: 4mM); 1.12 ± 0.045 (concentration: 6mM). The NP40-soluble protein abundance worked out at 1.23 ± 0.05 (concentration: 8mM) and 1.39 ± 0.082 (concentration: 10mM).

“A0A087WXF8|A0A087WXU5|A0A0D9SEW3|E7EPF0 and related entries (UniProt Q9NP64)”: the NP40-soluble protein abundance reads like this: (concentration: 0.1mM) 0.925 ± 0.077; (concentration: 0.5mM) 1.03 ± 0.025; (concentration: 1mM) 0.919 ± 0.016; (concentration: 2mM) 0.912 ± 0.06; (concentration: 4mM) 0.88 ± 0.049; (concentration: 6mM) 0.94 ± 0.05. Besides, the NP40-soluble protein abundance (concentration: 8mM) was 0.879 ± 0.074 and the NP40-soluble protein abundance (concentration: 10mM) stood at 0.981 ± 0.074.

In the case of “A0A0A0MT33|Q9UPN6 and related entries (UniProt Q9UPN6)”, the NP40-soluble protein abundance was determined as 1.05 ± 0.067 (concentration: 0.1mM); 1.04 ± 0.091 (concentration: 0.5mM); 1.08 ± 0.069 (concentration: 1mM); 1.09 ± 0.069 (concentration: 2mM); 1.1 ± 0.029 (concentration: 4mM); 1.09 ± 0.067 (concentration: 6mM). Further, the NP40-soluble protein abundance by setting is: (concentration: 8mM) 1.13 ± 0.095; (concentration: 10mM) 1.11 ± 0.059.

In the case of “A0A0C4DGA2|O75521 and related entries (UniProt O75521)”, the NP40-soluble protein abundance is, setting by setting: (concentration: 0.1mM) 0.984 ± 0.025; (concentration: 0.5mM) 0.995 ± 0.045; (concentration: 1mM) 0.971 ± 0.022; (concentration: 2mM) 0.962 ± 0.046; (concentration: 4mM) 0.926 ± 0.025; (concentration: 6mM) 0.964 ± 0.033. In addition, the NP40-soluble protein abundance runs as follows: (concentration: 8mM) 0.966 ± 0.039; (concentration: 10mM) 0.951 ± 0.021.

As to A0A0A0MRS4|Q9NVV0 (UniProt Q9NVV0), the NP40-soluble protein abundance by setting is: (concentration: 0.1mM) 0.9182 ± 0.0082; (concentration: 0.5mM) 0.923 ± 0.024; (concentration: 1mM) 0.966 ± 0.024; (concentration: 2mM) 0.982 ± 0.023; (concentration: 4mM) 1 ± 0.014; (concentration: 6mM) 0.934 ± 0.041. Moreover, the NP40-soluble protein abundance was 1.01 ± 0.016 (concentration: 8mM) and 0.965 ± 0.053 (concentration: 10mM).

As to “A0A0C4DG44|O43464 and related entries (UniProt O43464)”, the NP40-soluble protein abundance runs as follows: (concentration: 0.1mM) 1.02 ± 0.014; (concentration: 0.5mM) 1.02 ± 0.028; (concentration: 1mM) 1.04 ± 0.019; (concentration: 2mM) 1.03 ± 0.017; (concentration: 4mM) 1.02 ± 0.091; (concentration: 6mM) 1 ± 0.058. The NP40-soluble protein abundance amounted to 0.991 ± 0.014 (concentration: 8mM) and 0.992 ± 0.024 (concentration: 10mM).

Regarding UniProt A4D1P6 and related entries, the NP40-soluble protein abundance was determined as 1.084 ± 0.0011 (concentration: 0.1mM); 1.16 ± 0.032 (concentration: 0.5mM); 1.1 ± 0.066 (concentration: 1mM); 1.12 ± 0.088 (concentration: 2mM); 1.093 ± 0.0044 (concentration: 4mM); 1.14 ± 0.041 (concentration: 6mM). Also, the NP40-soluble protein abundance runs as follows: (concentration: 8mM) 1.08 ± 0.16; (concentration: 10mM) 1.05 ± 0.09.

For “A0A088AWN8|E7EP87 and related entries (UniProt Q9UHQ1)”, the NP40-soluble protein abundance is, setting by setting: (concentration: 0.1mM) 1.04 ± 0.11; (concentration: 0.5mM) 0.988 ± 0.079; (concentration: 1mM) 0.947 ± 0.13; (concentration: 2mM) 0.98 ± 0.13; (concentration: 4mM) 0.926 ± 0.14; (concentration: 6mM) 0.89 ± 0.12. The NP40-soluble protein abundance reads like this: (concentration: 8mM) 0.958 ± 0.045; (concentration: 10mM) 0.89 ± 0.1.

On to “A0A087WYK8|B1AKJ5 and related entries (UniProt O43847)”, for which the NP40-soluble protein abundance worked out at 0.987 ± 0.052 (concentration: 0.1mM); 1.03 ± 0.065 (concentration: 0.5mM); 0.922 ± 0.039 (concentration: 1mM); 0.936 ± 0.028 (concentration: 2mM); 0.8965 ± 0.0066 (concentration: 4mM); 0.911 ± 0.036 (concentration: 6mM). The NP40-soluble protein abundance (concentration: 8mM) is 0.869 ± 0.021 and the NP40-soluble protein abundance (concentration: 10mM) was determined as 0.849 ± 0.029.

Take A0A0U1RRB6|Q9Y2D4 (UniProt Q9Y2D4): the NP40-soluble protein abundance (concentration: 0.1mM) was 1.02 ± 0.058; the NP40-soluble protein abundance (concentration: 0.5mM) came out at 1.01 ± 0.054; the NP40-soluble protein abundance (concentration: 1mM) amounted to 0.991 ± 0.048; the NP40-soluble protein abundance (concentration: 2mM) came to 0.969 ± 0.061; the NP40-soluble protein abundance (concentration: 4mM) turned out to be 0.968 ± 0.039; the NP40-soluble protein abundance (concentration: 6mM) was 0.985 ± 0.036. Besides, the NP40-soluble protein abundance is, setting by setting: (concentration: 8mM) 0.953 ± 0.031; (concentration: 10mM) 0.911 ± 0.082.
